PubChem BioAssay AID1224830 – NIAID – 2016
The whole screen tested about 18,000 reagents; this is an unselected part. Over the whole deposit, about 2,900 (16%) were called active. 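Calls are made per well; low scores hint the gene aids the LPS response, high scores that it dampens it.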 Entries without a mark were called inactive. Repeated entries: four replicate wells of each siRNA pool.

Purpose: 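Regulators of TLR4 signalling towards TNF-alpha in macrophage-like cells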 (primary screen)
Cell system: human THP-1 monocytic leukaemia cells, TNF dual-luciferase reporter clone, PMA-differentiated to macrophage-like cells
Reagents: siRNA pool against human genes, 50 nM
Timing: LPS for 4 h, given about 3 days after siRNA transfection
Challenge: bacterial LPS (TLR4 ligand), 10 ng/ml
Measurement: 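Ratio of firefly to renilla light, scaled to the plate median and expressed as a robust z-score per replicate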
Reading the numbers: TNF reporter robust z-score: higher = stronger TNF reporter response to LPS
Rule for the call: 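a well is active when its z-score exceeds 2.8 or falls below -1.5; control wells carry no call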

no.	gene	TNF reporter robust z-score
1	RPS12	0.99
2	RPS12	1.42
3	RPS12	2.07
4	RPS12	0.88
5	SANBR	-0.45
6	SANBR	-0.13
7	SANBR	0.76
8	SANBR	0.66
9	CD276	-1.64 (active)
10	CD276	-1.25
11	CD276	-1.14
12	CD276	-0.66
13	RXRA	0.86
14	RXRA	0.71
15	RXRA	-0.1
16	RXRA	0.19
17	FGD4	-0.31
18	FGD4	-0.15
19	FGD4	-0.44
20	FGD4	0.24
21	UGT1A3	-0.36
22	UGT1A3	-0.43
23	UGT1A3	-0.61
24	UGT1A3	0.22
25	IL7	-0.54
26	IL7	-0.69
27	IL7	0.08
28	IL7	-0.07
29	SPEM1	-0.26
30	SPEM1	0.07
31	SPEM1	-0.07
32	PTCH2	-0.04
33	PTCH2	-0.81
34	PTCH2	0.89
35	PTCH2	0.7
36	HSCB	0.73
37	HSCB	1.01
38	HSCB	-0.41
39	HSCB	0.94
40	OR52B2	-0.26
41	OR52B2	0.32
42	OR52B2	-0.58
43	OR52B2	0.2
44	TMEM231	1.13
45	TMEM231	1.17
46	TMEM231	0.04
47	TMEM231	0.86
48	NCDN	1.69
49	NCDN	1.84
50	NCDN	1.07
51	CAMK2N2	0.39
52	CAMK2N2	0.05
53	CAMK2N2	-0.25
54	CAMK2N2	0.33
55	DEPP1	1.49
56	DEPP1	0.22
57	DEPP1	-0.72
58	DEPP1	-0.47
59	DIS3	0.2
60	DIS3	0.4
61	DIS3	-0.38
62	DIS3	0.28
63	PHLPP1	0.17
64	PHLPP1	-0.44
65	PHLPP1	-0.5
66	PHLPP1	-0.52
67	POLDIP2	1.16
68	POLDIP2	-0.39
69	POLDIP2	0.41
70	POLDIP2	-0.56
71	DYNC1I1	-0.95
72	DYNC1I1	-1.12
73	DYNC1I1	-0.82
74	DYNC1I1	-0.28
75	REEP5	0.9
76	REEP5	2.36
77	REEP5	1.96
78	REEP5	1.81
79	UBR1	-0.17
80	UBR1	1.5
81	UBR1	1.01
82	UBR1	1.73
83	FAM47C	4.17 (active)
84	FAM47C	3.48 (active)
85	FAM47C	3.03 (active)
86	FAM47C	1.02
87	PCDH18	1.27
88	PCDH18	0.02
89	PCDH18	-0.78
90	PCDH18	-0.49
91	LINC00173	0.52
92	LINC00173	0.73
93	LINC00173	0.53
94	LINC00173	0.02
95	TAF1B	0.18
96	TAF1B	1.44
97	TAF1B	0.1
98	TAF1B	0.82
99	B3GNT8	1.17
100	B3GNT8	2.72
101	B3GNT8	2.38
102	B3GNT8	3.68 (active)
103	TMEM100	-0.6
104	TMEM100	0.74
105	TMEM100	-0.51
106	TMEM100	0.64
107	ZNF519	-0.86
108	ZNF519	-0.46
109	ZNF519	-0.97
110	ZNF519	-0.04

Reformatted: entries from further up.
| gene | TNF reporter robust z-score |
| --- | --- |
| RXRA | 0.71 |
| RXRA | -0.1 |
| RXRA | 0.19 |
| FGD4 | -0.31 |
| FGD4 | -0.15 |
